Measurements published in article doi:10.1101/2021.12.16.472925.
Results are given in words; binding and its absence hold for the method and conditions named. In cells and extracts the contact can be indirect. Some results given as binding are weak or reduced against the parent protein; the word gives no strength.

By UniProt entry, the sequences of proteins in these tests, tags left out.
UniProt P23787: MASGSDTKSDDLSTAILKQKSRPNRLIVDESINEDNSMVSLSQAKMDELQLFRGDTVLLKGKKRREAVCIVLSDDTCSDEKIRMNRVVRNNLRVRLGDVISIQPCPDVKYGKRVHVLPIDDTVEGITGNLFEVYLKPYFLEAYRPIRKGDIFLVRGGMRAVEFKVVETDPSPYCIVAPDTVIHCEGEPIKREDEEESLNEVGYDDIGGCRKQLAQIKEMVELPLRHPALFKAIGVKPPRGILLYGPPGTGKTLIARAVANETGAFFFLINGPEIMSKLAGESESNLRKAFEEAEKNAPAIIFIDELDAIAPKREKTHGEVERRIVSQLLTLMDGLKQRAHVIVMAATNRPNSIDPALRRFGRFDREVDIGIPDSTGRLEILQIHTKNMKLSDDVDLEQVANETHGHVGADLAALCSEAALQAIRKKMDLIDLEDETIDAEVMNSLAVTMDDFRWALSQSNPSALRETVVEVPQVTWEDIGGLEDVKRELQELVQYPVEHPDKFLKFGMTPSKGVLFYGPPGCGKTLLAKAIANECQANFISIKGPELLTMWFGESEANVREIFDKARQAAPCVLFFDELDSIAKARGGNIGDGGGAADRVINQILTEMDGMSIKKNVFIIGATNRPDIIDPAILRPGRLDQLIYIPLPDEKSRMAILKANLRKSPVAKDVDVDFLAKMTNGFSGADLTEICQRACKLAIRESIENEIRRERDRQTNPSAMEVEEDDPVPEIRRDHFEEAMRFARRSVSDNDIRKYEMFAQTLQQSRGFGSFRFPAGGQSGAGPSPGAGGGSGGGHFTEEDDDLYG
UniProt Q9YHZ6: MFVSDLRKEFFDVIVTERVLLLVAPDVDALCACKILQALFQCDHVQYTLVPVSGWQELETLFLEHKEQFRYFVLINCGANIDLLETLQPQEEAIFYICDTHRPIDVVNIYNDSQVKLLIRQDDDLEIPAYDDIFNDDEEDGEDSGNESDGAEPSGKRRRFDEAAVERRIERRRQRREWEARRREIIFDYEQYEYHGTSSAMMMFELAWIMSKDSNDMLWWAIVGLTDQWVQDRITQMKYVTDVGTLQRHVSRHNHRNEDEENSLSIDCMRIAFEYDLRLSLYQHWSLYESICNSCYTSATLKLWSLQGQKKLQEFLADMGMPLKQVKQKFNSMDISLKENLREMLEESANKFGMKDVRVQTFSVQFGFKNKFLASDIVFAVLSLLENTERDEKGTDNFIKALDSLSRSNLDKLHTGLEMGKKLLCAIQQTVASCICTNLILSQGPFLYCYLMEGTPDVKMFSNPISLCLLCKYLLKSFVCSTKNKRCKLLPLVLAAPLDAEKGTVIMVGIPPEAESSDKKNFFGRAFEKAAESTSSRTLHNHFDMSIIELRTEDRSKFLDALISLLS

Target: p97 segregase (Xenopus laevis (endogenous in egg extract)) (UniProt P23787)
Assay: co-IP

Substance: Cdc45 (from UniProt Q9YHZ6 1-567)
- binding: binds weakly
